Test results as given in paper PMC3325215.
Results are given in words; binding and its absence hold for the method and conditions named. In cells and extracts the contact can be indirect. These calls come from enrichment with a bait or labelling near it, and not all partners need be listed. Tags and fused reporters may be left off the sequences shown.

How the values were obtained:
[1] = biological target: T1, GFP-VIP3 fusion protein (VERNALIZATION … 3, At4g29830) (Arabidopsis thaliana) (UniProt Q9SZQ5); test: affinity purification with mass spectrometry; protein extract of 35S::GFP-VIP3 plants fractionated by gel filtration (Superdex 200); pooled smaller (100-200 kDa) fractions incubated 90 min at 4°C with anti-GFP magnetic beads, washed 5 times with protein extraction buffer; stringent conditions
T1 sequence: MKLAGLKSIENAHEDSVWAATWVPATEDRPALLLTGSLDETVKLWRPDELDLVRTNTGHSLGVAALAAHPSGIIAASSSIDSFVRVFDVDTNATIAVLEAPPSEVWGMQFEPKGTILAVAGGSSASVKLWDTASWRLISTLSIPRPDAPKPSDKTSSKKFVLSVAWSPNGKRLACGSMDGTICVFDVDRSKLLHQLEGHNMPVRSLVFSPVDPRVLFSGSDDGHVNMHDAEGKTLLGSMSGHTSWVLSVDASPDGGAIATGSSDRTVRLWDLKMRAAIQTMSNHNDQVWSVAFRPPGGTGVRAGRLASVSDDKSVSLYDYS

[2] = biological target: T1, GFP-VIP3 fusion protein (VERNALIZATION … 3, At4g29830) (Arabidopsis thaliana); test: affinity purification with mass spectrometry; direct immunoprecipitation with anti-GFP beads from total protein extract of GFP-VIP3 plants, same conditions, no prior gel filtration

binding [1]: binds
binding [2]: binds
B1: AtSKI3 (At1g76630), Arabidopsis SKI3 homolog (protein, UniProt F4I3Z5 1-1168)
chain: MELEQLKKSVEENPDDSSLQFELGLYLWDNGGDSEKAAEHFVLSAKSDPNNAVAFKYLGHYYSRVTLDLNRAAKCYQRAVLINPNDSDSGEALCDLFDRQGKEILEIAVCRDASEKSPKAFWAFCRLGYIQLHQKKWSEAVQSLQHAIRGYPTMSDLWEALGLAYQRLGMFTAAIKAYGRAIELDETKIFALVESANIFLMLGSYRKGVELFEQALKISPQNISVLYGLASGLLSWSKECINLGAFGWAASLLEDARKAAKASSELASSMSCIWKLHGDIQLTYARCFPWSGGTENSEFTLKTFSDSILSWRSICYSAALSAKASYQRALHLAPWQANVYTDIAITCDLVSSLSDDSDTSSSWKLPEKMVLGALLLECENSEFWVALGCMSDNSALKLHALIRALHLDVSLAVAWAFMGQIFRESDEMKFAKQAFDCARSIDPTLALPWAGSADTYARESTSDEAFESCLRAAQISPLAEFQVGLAWLALLQGNISSPQIFACIEQAVQRSPYYPEPHNLHGLVCEARHNYHTAIASYRLALAAMSIYPESSVKSHAGKVSINLVRSLSKAGRFKESVMECANLKSKGLLDAGGLQIYAFSLWRTGQNDSALSVIRDLAGRISTREKTSIAFPISFICSLLYCISGLDSAITSIQKMPKDFFQSSKISFIVSAIHSLDQSDRLQSIVASTRSYITSQEEIVAMHYLIALSKLLKTGAGDFLGYEKGIAHLSKAIHMYPHSNLIRNLLGYILLAGEGMKDACTASRCCIINVSECANKEGLKSALEVLGGGSVACNVIGNTAPRFSFPTCHCQYLNAPVVVVELQRFLHQEPSNSSVRYLLILNLVQKAREQRFPRQLCRAIERLISVALSDETCSKEGEYKKFQLLLCASEISLQMGNIAESINHARKASSLSLPSSYLFLGHLQLCRAYAANGSTKNMQEEYRACLELKTDSNIGWICLKLIESQYNLEPDANLLEMSLQECSSQKKNSWKEWMAVYSLARGLDSTGKKDFFSAEEFLAQACSLLNSESCLLLCHGAVCMELARQSNDSQFLSLAVKSLSKVQASSLFPLPIVYTLLAQAHGSLGSKEKWEKNLRLEWFCWPPEMRPAEVYFQMHILARQSEDRPETTSGIENYQSPEKWVIRAIHTDPSCRRYWKVLDKLVQHPMS
